# Reference: article PMC8576533
# B1: DOT1A (enzyme, UniProt Q581Z0 1-295)
# chain: MPGLLISRKRTRSEASGKPIGEIKCVAENRVQALKPPLGELVPKGELGAGTPHEPYNLPLRGNPNKSGCHHCLADQCHCVFFERLLDATFRRLDIKRITEVSGSRHLCAKSLLPTFVSRMVRLMEITSEDTFYDLGCGNGSILFQVAFLTGARCVGIEISEHNAKVAKKAWEVIRPELEGSSGRSMPEVNIITSDMTKILADERLFESERGKTVILLSNLLFPKSLTHYLSERFRRVPSGTRILCFDDLYPHSRSVAAIRDPEAFRLFAMTDYRWQECSVEWCTRDGPFFIHRRR
# Key:
# [1] = molecular target: RH2C-HA (Trypanosoma brucei (Lister strain 427)); assay: affinity purification with mass spectrometry; co-IP of RH2A-HA or RH2C-HA from PCF lysate with anti-HA antibody-Sepharose (3 h, 4°C, IP buffer: 150 mM NaCl, 20 mM Tris-HCl pH 8.0, 10 mM MgCl2, 0.25% Igepal CA-630); WT cells as control; MS of eluates, four biological replicates
# [2] = molecular target: RH2A-HA (Trypanosoma brucei (Lister strain 427)); assay: as above
binder,measurement,setting,value
B1,binding,[1],binds
same,binding,[2],binds

# Results are given in words; binding and its absence hold for the method and conditions named. Binding seen in cells or lysates may run through a third protein. A yes stands for co-enrichment or nearness to the bait. Other partners may have been found.
